Data taken from PubChem BioAssay AID493014 (National Center for Advancing Translational Sciences (NCATS), 2011).
The list shows a part of the results. The main result of the screen is listed elsewhere. These columns were measured beside it and carry no call. Most of these compounds were active or inconclusive in the main read-out, so they are no random draw. The note in brackets gives the kind of curve behind each potency; many fits are weak.

Assay: qHTS Assay to Find Inhibitors of Chronic Active B-Cell Receptor Signaling
Conditions: ABC-DLBCL IkBa-CBG/CBR reporter, luminescence ratio (green luciferase fused to IkBa over red control in TMD8 lymphoma cells), 4 h
Procedure, shortened: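 Concentration-response series (up to 46 uM) were applied to TMD8 dual-reporter cells for 4 h at 37C with doxycycline. Green/red ratio, after filter-overlap correction, defined %Activity; red signal alone was normalised to basal cells and zero luminescence.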

[1] = measured here: CBR red luminescence, cell number
[2] = measured here: IkBa-CBG green luminescence

| Structure (SMILES) | AC50 [1] | AC50 [2] |
| --- | --- | --- |
| O=C(N/N=C/c1cn(-c2ccccc2)nc1-c1cccnc1)c1cccnc1 | 2.82 µM [falling, single point] |  |
| O=C(CSc1nccc(=O)[nH]1)c1c[nH]c2ccccc12 | 4.47 µM [falling, partial curve] |  |
| CCCN=C1N(CC)C[C@@H]2[C@@H]3C(=O)N(C)C(=O)[C@@H]3[C@](C)(C(=O)OC)N12 | 0.146 µM [rising, full curve, poor fit] |  |
| CCOC(=O)c1cccc(NC(=O)N2CCOCC2)c1 | 35.5 µM [rising, single point] |  |
| CN(C)c1nc(N)nc(-c2ccco2)n1 | 5.17 µM [falling, partial curve, poor fit] |  |
| COc1ccc2sc(-c3ccccc3OC)c(-c3ccc(OC)nc3)c2c1 | 18.4 µM [rising, partial curve, poor fit] |  |
| Cc1ccc(/C=N/Nc2ccc3ccccc3n2)o1 | 2.82 µM [falling, full curve] |  |
| COc1cccc(CNC(=O)c2cc(S(=O)(=O)N3CCOCC3)cn2C)c1 | 2.82 µM [rising, partial curve] |  |
| Cc1cc(C)c(C)c(N=Nc2nc3ccccc3n2C)c1C | 0.651 µM [rising, full curve, poor fit] |  |
| S=C(Nc1nc2c(s1)CCCC2)NC1CC1 |  | 17.8 µM [falling, single point] |
| COc1ccc(Oc2cc(C)c3ccccc3n2)cc1 | 11.2 µM [rising, partial curve, poor fit] |  |
| O=C(Nc1c(C(=O)Nc2cccc3ccccc23)cnn1-c1ccccc1)c1ccco1 | 9.2 µM [falling, partial curve, poor fit] |  |
| CS(=O)(=O)N(CC(=O)Nc1ccc2c(c1)OCO2)c1ccc(Cl)cc1 | 6.31 µM [falling, partial curve] |  |
| Cc1noc(C)c1S(=O)(=O)N1CCCC(C(=O)NCCc2ccc(Cl)cc2)C1 (stereo not drawn) | 29.1 µM [falling, single point] |  |
| CN(C)c1ccc(-c2nnn(CC(=O)Nc3ccccc3N3CCOCC3)n2)cc1 | 14.1 µM [falling, single point] |  |
| O=C(NC(Cc1c[nH]c2ccccc12)C(=O)O)/C(=C/c1ccco1)NC(=O)c1ccccc1 (stereo not drawn) | 35.5 µM [falling, single point] |  |
| O=C1CSC(=S)N1c1cccc(F)c1 | 35.5 µM [falling, single point] |  |
| CCC(=O)Nc1cccc(-c2ccc(N3CCC(C)CC3)nn2)c1 | 1.78 µM [falling, full curve, poor fit] |  |
| N#CC1CCN(C(=O)c2ccc3c(Cl)c4c(nc3c2)CCCC4)CC1 | 35.5 µM [falling, single point] |  |
| CC(=O)c1c(C)nc2ccc(Br)cc2c1C(=O)O | 5.8 µM [rising, full curve] |  |
| CC(NC(=O)c1sc2ccccc2c1Cl)C1CCCO1 (stereo not drawn) | 16.4 µM [falling, single point] |  |
| Fc1ccc2nc(Nc3nc4cc5c(cc4s3)OCO5)sc2c1 | 0.00461 µM [rising, full curve, poor fit] |  |

| Structure (SMILES) | AC50 [1] | AC50 [2] |
| --- | --- | --- |
| COc1cc(NC(=O)Nc2ccc(C)cc2)cc([N+](=O)[O-])c1 | 0.92 µM [rising, full curve, poor fit] |  |
| COc1ccc(Cc2nnc(SCC(=O)Nc3ccc(C)cc3)n(N)c2=O)cc1 | 13 µM [falling, partial curve, poor fit] |  |
| Cc1ccc2nc(NC(=O)c3ccc(Cl)s3)sc2c1 | 1.64 µM [falling, full curve, poor fit] |  |
| CS(=O)(=O)c1ccc(Cl)c(NC(=O)COC(=O)CNC(=O)c2ccc(Br)o2)c1 | 25.9 µM [rising, single point] |  |
| CC(OC(=O)c1ccc2noc(-c3ccccc3)c2c1)C(N)=O (stereo not drawn) | 3.98 µM [falling, partial curve] |  |
| O=c1oc2ccccc2c(Nc2ccccc2)c1CN1CCCCC1 | 11.2 µM [falling, partial curve, poor fit] |  |
| CCC1=NN(C(=O)c2cccc([N+](=O)[O-])c2)C(O)(c2ccc(C)cc2)C1 (stereo not drawn) | 35.5 µM [falling, single point] |  |
| O=C(Cc1ccc(F)cc1)NCc1ccc2c(c1)CCN2C(=O)c1ccc(F)cc1 | 15.8 µM [rising, partial curve] |  |
| Cc1cccc(NC(=O)NCC(c2ccco2)N2CCCCC2)c1 (stereo not drawn) | 7.08 µM [rising, full curve, poor fit] |  |
| Cc1cc(C)n(/N=C/c2ccccc2)c(=O)c1C#N | 18.4 µM [falling, single point] |  |
| C=CCNC(=S)N1CCN(CCN=Cc2c(C)[nH]n(-c3ccc([N+](=O)[O-])cc3)c2=O)CC1 | 11.2 µM [falling, partial curve] |  |
| O=C(COC(=O)CNC(=O)c1ccc(Cl)cc1Cl)NC(=O)NCc1ccccc1 | 1.3 µM [falling, partial curve, poor fit] |  |
| Cc1nn(-c2ccccc2)c(C)c1C(=O)Oc1ccccc1 | 3.16 µM [rising, single point] |  |
| Cc1cccc(NC(=O)Nc2nnc(N3CCCCC3C)s2)c1C (stereo not drawn) | 29.1 µM [rising, single point] |  |
| COc1ccccc1NC(=O)Nc1ccc(Cc2ccncc2)cc1 | 15.8 µM [falling, single point] |  |
| CCCNS(=O)(=O)c1ccc(CCC(=O)N2CCN(c3ccc(F)cc3)CC2)cc1 | 3.66 µM [falling, full curve] |  |
| NC(=S)N/N=C/c1ncc(C(F)(F)F)cc1Cl | 12.6 µM [rising, partial curve] | 6.31 µM [falling, partial curve] |
| C=CCNc1nc(N2CCCC2)nc2ccccc12 | 2.31 µM [rising, partial curve, poor fit] |  |
| COc1ccccc1NC(=O)COC(=O)CCS(=O)(=O)c1ccc(C)cc1 | 15.8 µM [falling, single point] |  |
| COc1ccc(-c2cc(C(=O)NNC(=O)c3csc(N4CCOCC4)n3)c3ccccc3n2)cc1 | 5.17 µM [rising, single point] |  |
| COc1ccc(CCNC(=O)C(=O)NCC(c2ccco2)S(=O)(=O)c2cccs2)cc1OC (stereo not drawn) | 0.2 µM [rising, full curve, poor fit] |  |
| COc1ccc(CCN2C(=O)CC(N3CCN(S(=O)(=O)c4ccccc4)CC3)C2=O)cc1OC (stereo not drawn) | 1.12 µM [rising, full curve, poor fit] |  |

Rewritten with bars between the fields: five of the compounds above.
Structure (SMILES) | AC50 [1] | AC50 [2]
O=C(Cc1ccc(F)cc1)NCc1ccc2c(c1)CCN2C(=O)c1ccc(F)cc1 | 15.8 µM [rising, partial curve] | 
Cc1cccc(NC(=O)NCC(c2ccco2)N2CCCCC2)c1 (stereo not drawn) | 7.08 µM [rising, full curve, poor fit] | 
Cc1cc(C)n(/N=C/c2ccccc2)c(=O)c1C#N | 18.4 µM [falling, single point] | 
C=CCNC(=S)N1CCN(CCN=Cc2c(C)[nH]n(-c3ccc([N+](=O)[O-])cc3)c2=O)CC1 | 11.2 µM [falling, partial curve] | 
O=C(COC(=O)CNC(=O)c1ccc(Cl)cc1Cl)NC(=O)NCc1ccccc1 | 1.3 µM [falling, partial curve, poor fit] | 

More entries follow:

| Structure (SMILES) | AC50 [1] | AC50 [2] |
| --- | --- | --- |
| COC1CCCN(Cc2cn(C)nc2-c2ccc(Oc3ccccc3)cc2)C1 (stereo not drawn) | 3.16 µM [rising, partial curve, poor fit] |  |
| C/C=C(\CS(=O)(=O)c1ccccc1)S(=O)(=O)c1ccccc1 | 0.103 µM [falling, full curve, poor fit] |  |
| CCc1ccc(/C=N/NC(=O)c2ccccn2)cc1 | 3.98 µM [falling, partial curve] |  |
| Cc1ccccc1Nc1nnc(SCC(=O)c2cc3ccccc3o2)s1 | 5.8 µM [rising, partial curve, poor fit] |  |
| COc1ccc(CCNC(=O)c2ccc3c(c2)N(Cc2ccc(F)cc2)C(=O)CS3)cc1OC | 12.6 µM [falling, single point] | 22.4 µM [rising, partial curve, poor fit] |
| O=c1[nH]c2cc3c(cc2cc1CN(Cc1cccnc1)C(=S)NCc1ccco1)OCO3 | 10 µM [falling, partial curve, poor fit] |  |
| C=CCN(CC=C)C(=O)CN1C(=O)NC(Cc2c[nH]c3ccccc23)C1=O (stereo not drawn) | 15.8 µM [rising, single point] |  |
| CC(O)c1nc2ccccc2n1CCCCOc1ccccc1 (stereo not drawn) | 22.4 µM [rising, partial curve, poor fit] |  |
| Cc1ccc(C(=O)Nc2ccc3c(c2)OCCO3)cc1 | 11.2 µM [falling, partial curve] |  |
| Cc1sc2ncnc(Nc3ccc(N4CCOCC4)cc3)c2c1-c1ccccc1 | 14.6 µM [rising, partial curve, poor fit] |  |
| COc1ccccc1CC(=O)NNC(=O)c1cccs1 | 10 µM [falling, partial curve, poor fit] |  |
| COc1cc2c(cc1NC(=O)c1cccc(Br)c1)CCCC2 | 0.447 µM [rising, full curve, poor fit] |  |
| S=c1[nH]nc(-c2ccccc2)n1/N=C/c1cccc(Br)c1 | 12.6 µM [rising, single point] |  |
| COc1cccc2cc(-c3ccnc(N)n3)oc12 | 1.12 µM [falling, full curve, poor fit] |  |
| CC(C)(C)C(=O)Nc1nc2cc3c(cc2s1)OCO3 | 12.6 µM [falling, partial curve] |  |
| COc1cccc(CSc2nc3ccccc3cc2C=O)c1 | 2.82 µM [rising, partial curve] | 3.55 µM [falling, partial curve] |
| CCOCCCNCc1ccc(OC)cc1 | 29.1 µM [falling, single point] |  |
| CCCn1c(=O)c2c(nc3n2CCN3Cc2ccco2)n(C)c1=O | 0.355 µM [falling, full curve, poor fit] |  |
| CCN(CC)C(=O)CC(c1ccc2c(c1)OCO2)c1c(OC)cc(OC)c2ccc(=O)oc12 (stereo not drawn) | 7.08 µM [rising, full curve, poor fit] |  |
| Cc1ccc(NC(=O)c2ccccc2)s1 | 16.4 µM [falling, single point] |  |
| CCOC(=O)c1ccc(NC(=S)NC2CCCC2)cc1 | 0.58 µM [rising, full curve, poor fit] |  |
